PubChem BioAssay AID686938 – Drosophila RNAi Screening Center | 2013

Purpose: 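Knock-downs reducing store-operated calcium influx in Drosophila cells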 (primary screen)
System: Drosophila S2R+ cells
Reagent: long dsRNA against Drosophila genes, about 0.25 µg dsRNA per well, roughly 10,000 cells
Time to read-out: 5 days of knock-down before the calcium assay
Treatment: thapsigargin (SERCA pump blocker) to empty calcium stores; entry signal taken 4 min after adding it
Detection: 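Duplicate raw fluo-4 intensities per well from a plate reader, at rest and four minutes after thapsigargin emptied calcium stores; entry-to-rest ratio filled for only some wells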
Reading the numbers: calcium entry signal: higher = stronger calcium signal after store depletion; resting calcium signal: higher = higher resting calcium signal
Active means: 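Called when the plate z-score of the entry-to-rest ratio, mean of duplicates, falls below −3; wells with low overall dye signal (Fmax z below −2) or more than five off-targets excluded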
Meaning of the calls: active = strongly reduced calcium entry; inactive = no strong reduction
The screen tested about 23,000 reagents; below is a random part of those with a known target gene and a result. In the full data, 75 (0.33%) are marked active. 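Raw plate signals without normalisation; calls rest on plate z-scores that were not deposited; ratio present for only 364 wells.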 Reagents against one gene are numbered here. A plus sign joins genes that one reagent is predicted to hit. Not stated in the record: the dose of the treatment.

Gene,reagent no.,"calcium entry signal, replicate 1 (fluorescence units)","calcium entry signal, replicate 2 (fluorescence units)","resting calcium signal, replicate 1 (fluorescence units)","resting calcium signal, replicate 2 (fluorescence units)",call
CG15332,1,2.86e7,4.57e7,1.51e7,2.09e7,inactive
cola + swif,1,3.46e7,4.02e7,1.69e7,1.65e7,inactive
cola + swif,2,3.55e7,5.58e7,1.61e7,2.75e7,inactive
CG31345,1,4.42e7,3.10e7,1.90e7,1.45e7,inactive
CG31345,2,3.42e7,3.25e7,1.68e7,1.72e7,inactive
Dfd (Deformed),1,3.94e7,3.31e7,1.92e7,1.55e7,inactive
CG31528,1,4.04e7,2.75e7,2.32e7,1.44e7,inactive
Npc2e (Niemann-Pick type C-2e),1,2.95e7,2.37e7,1.54e7,1.32e7,inactive
Npc2e (Niemann-Pick type C-2e),2,3.84e7,6.30e7,1.90e7,3.07e7,inactive
ODA-Dnal1 (Outer dynein arm dynein axonemal light chain 1),1,3.76e7,4.53e7,1.83e7,1.89e7,inactive
l(2)37Cb (lethal (2) 37Cb),1,2.19e7,,1.40e7,,inactive
CG13083,1,5.19e7,5.25e7,2.64e7,2.15e7,inactive
CG8298,1,3.39e7,3.56e7,1.75e7,1.62e7,inactive

The list goes on, starting with the last 3 of the part before.
Gene,reagent no.,"calcium entry signal, replicate 1 (fluorescence units)","calcium entry signal, replicate 2 (fluorescence units)","resting calcium signal, replicate 1 (fluorescence units)","resting calcium signal, replicate 2 (fluorescence units)",call
l(2)37Cb (lethal (2) 37Cb),1,2.19e7,,1.40e7,,inactive
CG13083,1,5.19e7,5.25e7,2.64e7,2.15e7,inactive
CG8298,1,3.39e7,3.56e7,1.75e7,1.62e7,inactive
CG17048,1,4.01e7,2.95e7,1.87e7,1.29e7,inactive
mbo (members only),1,3.46e7,3.92e7,1.56e7,1.72e7,inactive
mute (muscle wasted),1,2.71e7,1.99e7,1.63e7,1.14e7,inactive
mute (muscle wasted),2,2.23e7,1.98e7,1.38e7,1.17e7,inactive
CG14907 + Mettl4,1,2.39e7,4.62e7,1.26e7,7.50e7,inactive
CG14907 + Mettl4,2,2.45e7,4.31e7,1.29e7,4.85e7,inactive
CG33462,1,4.81e7,3.78e7,2.45e7,1.78e7,inactive
mthl9 (methuselah-like 9),1,3.94e7,4.59e7,1.86e7,2.01e7,inactive
Arl1 (ADP ribosylation factor-like 1),1,3.93e7,4.67e7,2.12e7,2.05e7,inactive
CG8945,1,3.74e7,3.39e7,2.06e7,1.58e7,inactive
CG8945,2,3.86e7,3.40e7,2.07e7,1.57e7,inactive
